## Results of single-concentration screens

The values are deposited in ChEMBL (CHEMBL3988442, “University of Dundee, Small-Polar-MMV Screening Library” (2021)).

Results are given as percent effect. How 0% and 100% were set is not recorded. Most values in the screen are low, and negative values occur. The compounds are a random part of those screened. A dash means the value is not listed here; it may have been measured.

T. brucei: 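Whole-parasite assay of Trypanosoma brucei over 72 hours; the read-out is not stated. Compounds at 30 µM. Higher reads as stronger inhibition (inferred: compounds with an IC50 in retests scored well above the rest). Values scatter widely below zero; nearly all retest evidence comes from the higher of the two concentrations used. Of about 64,000 compounds tested this way, about 940 (1.5%) reached 50% or more in at least one test.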
Toxoplasma: 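Assay of Toxoplasma gondii numbers, read through their beta-galactosidase reporter with a colour substrate. Tested at 10 µM. Higher reads as fewer parasites (inferred from which compounds were picked for retests). Size under these conditions: about 67,000 compounds, about 260 of them at 50% or above in at least one test.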

| compound | T. brucei | Toxoplasma |
|---|---|---|
| `Cn1ccc(C(=O)NCCOc2ccc3c(c2)OCO3)cc1=O` | -17.83 | -0.306 |
| `Cn1cc(-c2nnn3c2COC(CNC(=O)c2cccs2)C3)cn1` (stereo not drawn) | 16.51 | 1.208 |
| `O=C(O)C(F)(F)F.[H][C@@]12CCN(C(C)C)C[C@]1([H])CN(C(=O)c1cccc(C)c1)C2` | -10.17 | 0.9879 |
| `Cc1cc(C)cc(NC(=O)CN2CCCC(n3cncn3)C2)c1` (stereo not drawn) | 20.22 | 8.508 |
| `CN(C)c1ccc(CC(=O)N2CCOCC(O)C2)cc1` (stereo not drawn) | -25.64 | -12.23 |
| `CCSCCC(C)NC(=O)Nc1cccn(C)c1=O` (stereo not drawn) | -30.1 | 1.447 |
| `c1ccc2nc(N3CCCCC3)c(NCc3nnc4n3CCC4)nc2c1` | -2.276 | -0.2887 |
| `CS(=O)(=O)N1CCC2(CCN(Cc3nccs3)CC2)CC1.O=C(O)C(F)(F)F` | -2.255 | 20.5 |
| `CCNC(=O)[C@@H]1C[C@@H](NC(=O)Cc2ccncc2)CN1Cc1ccsc1` | -4.312 | -12.07 |
| `CC(C)NC(=O)NCCCc1cccc(F)c1` | -1.105 | 5.475 |
| `Oc1nc(N2CCOCC2)nc2c1CCN(Cc1ccc(F)cc1)CC2` | 100.3 | 19.06 |
| `CC(C)Nc1nc2c(c(NC3CC3)n1)CN(C(=O)c1ccncc1)CC2` | -40.68 | 2.181 |
| `Fc1ccc(Sc2ccccc2CNC2=NCCN2)cc1.I` | -11.16 | 14.19 |
| `O=C(CCCNc1ncccn1)N1CCCC(n2ccnc2)C1` (stereo not drawn) | -10.24 | 12.05 |
| `[H][C@@]12CCN[C@]1([H])CN(S(=O)(=O)c1ccc(C)cc1)C2` | -7.51 | -10.5 |
| `O[C@@H]1C[C@@H](c2nc(-c3ccccc3)no2)N(CC2CCCCC2)C1` | -8.341 | 3.784 |
| `CCOc1ccc2c(c1)C=C(C(=O)NC(C)Cn1cccn1)CO2` (stereo not drawn) | -25.93 | -2.781 |
| `O=C(NCC(O)c1ccc(F)c(F)c1)c1cccnc1O` (stereo not drawn) | 9.73 | -3.893 |
| `COCCCN(CCOC)C(=O)Nc1ccccc1Br` | -23.45 | 1.659 |
| `CC(C)c1noc(CN(Cc2ccccc2)C2CC2)n1` | -36.1 | 10.99 |
| `O=C(c1ccn(-c2cccc(Cl)c2)n1)N1CCN(C2CC2)CC1` | -28.32 | -0.5294 |
| `CC(C)NC(=O)N1CCN(S(=O)(=O)C2CC2)CC2(CC(=O)N(C)C2)C1` (stereo not drawn) | 6.015 | -5.543 |
| `CNc1cncc(C2CCCN2Cc2cccc(C)n2)n1` (stereo not drawn) | -10.48 | 3.419 |
| `Cc1ccc(CN2CCn3c(C(=O)N(C)C)cnc3C2)cc1.O=C(O)C(F)(F)F` | -165 | -14.63 |
| `CS(=O)(=O)c1cccc(C(=O)N2CCCC(n3cccn3)C2)c1` (stereo not drawn) | -5.245 | -3.052 |
| `CC(=O)NCCCNC(=O)Nc1ccccc1-n1nc(C)cc1C` | -24.38 | 5.238 |
| `Nc1nc(N)c2c(n1)OC1(CCN(Cc3nccs3)C1)C2` (stereo not drawn) | -18.16 | -10.23 |
| `CCCOCCCNc1nccc(-c2cn(C)nc2C)n1` | 60.81 | -5.208 |
| `CC(=O)NC[C@H]1OC[C@@H](NC2CCC(F)(F)CC2)[C@@H]1O` | -5.429 | 5.184 |
| `CCn1c(C)nnc1CN(C)C1CCN(Cc2sc(C)nc2C)C1` (stereo not drawn) | -13.68 | 7.71 |
| `CN1CCN(C(=O)c2cccn2C)c2ccccc2C1` | -4.97 | -10.11 |
| `O=c1[nH]ncc(NCCOc2ccc3c(c2)OCO3)c1Cl` | 0.925 | 5.936 |
| `CCOCc1cccc(S(=O)(=O)N2CCSCC2)c1` | 38.82 | 5.14 |
| `CC(C)C(=O)N1CCC(c2nc(O)cc(-c3ccncc3)n2)CC1` | 14.56 | 14.8 |
| `Cc1nc(C)n(CC2CCCN2Cc2coc(-c3cccs3)n2)n1` (stereo not drawn) | -20.02 | -0.5668 |
| `O=C(O)C(F)(F)F.O=C(c1ccoc1)N1CCOC2(COCCN(c3ncccn3)C2)C1` (stereo not drawn) | -19.17 | -3.339 |
| `CC(C)CC(=O)NCCn1nc(C2CCNC2)c2cccnc21.Cl` (stereo not drawn) | 2.604 | -17.15 |
| `O=C(O)c1ccccc1-c1ccc(CN2CCCC(O)C2)cc1` (stereo not drawn) | -21.37 | 22.38 |
| `Cn1cc(CN2CCC3(CCCN(C(=O)c4cnccn4)C3)C2)cn1` (stereo not drawn) | -84.42 | -2.423 |
| `O=C(CSc1nnc(N2CCNCC2)s1)Nc1ccccc1.O=C(O)C(F)(F)F` | -25.54 | -1.176 |
| `Cc1nc(-c2nnc[nH]2)sc1C(=O)N(Cc1cccnc1)C1CC1` | -15.36 | 7.444 |
| `CCOc1cccc(C2CC(=O)NCc3nc(N)sc32)c1` (stereo not drawn) | 1.52 | 17.59 |
| `COC(=O)c1ccc(NC(=O)[C@@H]2CCCN2C(=O)c2ccco2)s1` | -17.92 | 1.095 |
| `COc1cccc2c1OCC(NCCCOc1cccnc1)C2` (stereo not drawn) | -18.56 | 10.53 |
| `O=C(O)C(F)(F)F.[H][C@]12CCC[C@@]1(COCC(=O)N(C)C)CN(C1CCCC1)C2` | -60.26 | -0.266 |
| `COCCNc1nc(N2CCCC2)nc2nccnc12` | - | -2.227 |
| `Cc1cc(C)n(C2CN(CC(=O)NC3CCS(=O)(=O)C3)C2)n1` (stereo not drawn) | 0.2537 | -0.1506 |
| `COCCCNC(=O)Nc1ccc(-n2cncn2)c(C(F)(F)F)c1` | - | 26.73 |
| `CC(C)N1CCCCC1c1cncc(Cl)n1` (stereo not drawn) | 6.599 | -11.9 |
| `O=C(CCNC(=O)C1=Cc2ccccc2OC1)NCc1ccncc1` | -8.549 | 6.546 |
| `OC(COCc1ccccc1)CN1CCC(c2ccn[nH]2)CC1` (stereo not drawn) | - | -7.611 |
| `COC(=O)N1CCC(NC(=O)Cn2cc(C)c3ccccc32)CC1` | -16.57 | 5.398 |
| `Cc1nc(C)c(C(=O)N2CCc3c(Cl)cccc32)o1` | -39.98 | -12.48 |
| `O=C(Cn1ccc2ccc(Cl)cc21)/N=c1\[nH]nc(C2CCCO2)s1` (stereo not drawn) | -47.14 | - |
| `COc1ccnc(N2CCc3ccc(OC(F)F)cc3C2)n1` | 7.96 | 8.58 |
| `[H][C@@]12CNC(=O)[C@H](C)[C@]1([H])CN(Cc1cc(OC)cc(OC)c1)C2` | -60.64 | -15.59 |
| `COCCN1CCC2(CC1)CC(CC(N)=O)c1ccc(F)cc12` (stereo not drawn) | -49.71 | -22.77 |
| `N#Cc1ccc(NCCc2n[nH]c(=O)[nH]2)cc1Cl` | -33.96 | 3.881 |
| `COCCN(Cc1ccccc1Cl)C(=O)c1c(C)cc(C)[nH]c1=O` | -2.816 | 8.751 |
| `Cc1nc(Nc2ncccn2)cc(C2CCCN2Cc2ncc[nH]2)n1` (stereo not drawn) | -16.65 | 2.603 |
| `Cc1nn(C)c(N2CCOCC2)c1CNC(C)c1ccco1` (stereo not drawn) | -9.562 | 9.887 |
| `Cc1nc(N2CCCC2)ccc1NCc1ccccn1` | -26.34 | 32.55 |
| `O=C(O)C(F)(F)F.O=C1COC2(CCN(c3ccccn3)CC2)CN1` | -10.64 | -6.075 |
| `Cc1ncsc1C(=O)NC1CCN(CC(=O)N(C)c2ccccc2)CC1` | 32.24 | 4.583 |
| `Cl.c1nc(CCC2CCCCN2)cc(N2CCCC2)n1` (stereo not drawn) | -10.52 | -7.734 |
| `Cn1cnc(S(=O)(=O)NCCN2CCCCCC2=O)c1Cl` | -43.47 | -26.82 |
| `CCc1nc(CNc2cc(C)nc(-c3cccnc3)n2)cs1` | -12.6 | 9.338 |
| `CCn1cc(NC(=O)C(C)n2ncc(Cl)c2C)c(C(=O)NCC(C)C)n1` (stereo not drawn) | -4.706 | 16.47 |
| `Cn1nnnc1SCC1COc2ccccc2O1` (stereo not drawn) | 4.477 | -16.11 |
| `CC(NC(=O)CCN1CCOC1=O)(c1ccccc1)c1ccccc1` | -1.091 | 10.93 |
| `Cn1nnc2c(N3CC(C(=O)NCc4cccs4)C3)ncnc21` | -22.49 | -8.059 |
| `[H][C@@]12CCN(S(=O)(=O)N(C)C)C[C@@]1([H])O[C@@H](c1ccnc(C)n1)C2` | 10.53 | 6.22 |

The last 7 entries again:

compound,T. brucei,Toxoplasma
Cn1cnc(S(=O)(=O)NCCN2CCCCCC2=O)c1Cl,-43.47,-26.82
CCc1nc(CNc2cc(C)nc(-c3cccnc3)n2)cs1,-12.6,9.338
CCn1cc(NC(=O)C(C)n2ncc(Cl)c2C)c(C(=O)NCC(C)C)n1 (stereo not drawn),-4.706,16.47
Cn1nnnc1SCC1COc2ccccc2O1 (stereo not drawn),4.477,-16.11
CC(NC(=O)CCN1CCOC1=O)(c1ccccc1)c1ccccc1,-1.091,10.93
Cn1nnc2c(N3CC(C(=O)NCc4cccs4)C3)ncnc21,-22.49,-8.059
[H][C@@]12CCN(S(=O)(=O)N(C)C)C[C@@]1([H])O[C@@H](c1ccnc(C)n1)C2,10.53,6.22